# Data: patent publication US6204295A, “Antioxidant compounds” (Orion Corporation, priority 1996, dated 2001)
# The name of at least one read-out is uncertain.
# Key:
# [1] = tested on: lipid peroxidation in rat liver microsomes; assay: Inhibition of t-butylhydroperoxide-induced lipid peroxidation in rat liver microsomes (luminol chemiluminescence); assay type: biochemical, rat (Sprague-Dawley); settings: t-BuOOH; rat liver microsomes 1.5 μg protein/ml; pH 10.2; 33° C.; about 45 min; read-out: IC50 values for the inhibition of microsomal lipid peroxidation, initiated by t-Butylhydroperoxide
# [2] = tested on: lipid peroxidation in rat liver microsomes; assay: Inhibition of ascorbate/ADP-FeCl3-induced lipid peroxidation in rat liver microsomes (TBA reactive material); assay type: biochemical, rat (Sprague-Dawley); settings: rat liver microsomes 1.2 mg protein/ml, pH 6.0, 20 min at 37° C., read-out: IC50 values for the inhibition of microsomal lipid peroxidation, initiated by Ascorbate/ADP-FeCl3
smiles,measurement,setting,value
CC/C(=C(/CC)c1ccc(O)cc1)c1ccc(O)cc1 [diethylstilbestrol],IC50,[1],1.7 µM
same,IC50,[2],17 µM
